These are yes or no findings as the source states them, for the method shown. Binding seen in cells or lysates may run through a third protein. Some binding calls cover weakened binding; strength is not graded here.
Target: T1, HspBP1 (hsp70-binding protein 1) (human (endogenous in HeLa)) (UniProt Q9NZL4)
T1 sequence: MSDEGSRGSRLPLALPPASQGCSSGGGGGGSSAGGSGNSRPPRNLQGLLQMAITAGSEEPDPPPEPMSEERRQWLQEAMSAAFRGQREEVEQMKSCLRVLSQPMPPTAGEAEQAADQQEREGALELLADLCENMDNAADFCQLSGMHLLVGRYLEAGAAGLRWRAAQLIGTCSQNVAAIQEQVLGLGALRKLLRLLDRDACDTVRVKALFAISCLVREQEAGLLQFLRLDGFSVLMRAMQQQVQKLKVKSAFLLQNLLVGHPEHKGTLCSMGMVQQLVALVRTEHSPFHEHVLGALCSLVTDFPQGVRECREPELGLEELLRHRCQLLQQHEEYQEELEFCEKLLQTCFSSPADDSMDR
Test: co-IP; HeLa cells incubated with vehicle or 2 mM DEM; reversible cross-linking with DSP (15 min, 37 °C); indirect immunoprecipitation with antibodies against HspBP1; Western blotting of the immunoprecipitates

By UniProt entry, the sequences of proteins in these tests, tags left out. Residues count along the entry.
UniProt Q13283: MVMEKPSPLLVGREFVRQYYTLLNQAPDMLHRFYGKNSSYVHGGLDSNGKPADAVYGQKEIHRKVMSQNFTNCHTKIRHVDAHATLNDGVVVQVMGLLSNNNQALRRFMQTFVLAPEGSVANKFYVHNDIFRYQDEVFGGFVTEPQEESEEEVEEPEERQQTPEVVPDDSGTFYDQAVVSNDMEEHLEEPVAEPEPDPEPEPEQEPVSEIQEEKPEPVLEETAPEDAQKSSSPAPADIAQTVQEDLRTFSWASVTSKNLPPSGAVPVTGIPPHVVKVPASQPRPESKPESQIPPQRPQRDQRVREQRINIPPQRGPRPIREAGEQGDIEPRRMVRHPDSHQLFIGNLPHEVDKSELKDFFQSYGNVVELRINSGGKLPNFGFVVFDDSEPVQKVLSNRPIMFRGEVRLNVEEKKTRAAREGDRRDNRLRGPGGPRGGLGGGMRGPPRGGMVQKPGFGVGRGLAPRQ
UniProt P14625, residues 22-803: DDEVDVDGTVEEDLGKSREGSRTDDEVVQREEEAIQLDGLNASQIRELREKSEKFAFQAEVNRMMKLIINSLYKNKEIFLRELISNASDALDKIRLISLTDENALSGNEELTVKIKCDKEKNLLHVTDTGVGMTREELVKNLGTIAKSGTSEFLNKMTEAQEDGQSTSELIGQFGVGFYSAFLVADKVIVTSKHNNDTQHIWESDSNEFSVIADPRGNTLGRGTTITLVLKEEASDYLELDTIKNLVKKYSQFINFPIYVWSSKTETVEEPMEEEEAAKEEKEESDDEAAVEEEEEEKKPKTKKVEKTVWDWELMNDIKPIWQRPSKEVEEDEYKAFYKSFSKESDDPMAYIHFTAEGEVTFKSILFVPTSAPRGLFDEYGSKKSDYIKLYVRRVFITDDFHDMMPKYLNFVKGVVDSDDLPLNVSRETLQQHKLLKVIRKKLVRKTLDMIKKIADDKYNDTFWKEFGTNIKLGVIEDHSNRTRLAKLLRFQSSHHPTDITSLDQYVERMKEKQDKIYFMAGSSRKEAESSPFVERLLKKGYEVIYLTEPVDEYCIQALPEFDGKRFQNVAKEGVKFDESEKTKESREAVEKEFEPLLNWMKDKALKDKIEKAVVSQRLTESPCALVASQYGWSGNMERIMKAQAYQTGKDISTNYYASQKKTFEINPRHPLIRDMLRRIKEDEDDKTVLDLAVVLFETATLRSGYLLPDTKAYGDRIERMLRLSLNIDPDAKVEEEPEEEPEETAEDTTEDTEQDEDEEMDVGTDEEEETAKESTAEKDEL
UniProt Q15717: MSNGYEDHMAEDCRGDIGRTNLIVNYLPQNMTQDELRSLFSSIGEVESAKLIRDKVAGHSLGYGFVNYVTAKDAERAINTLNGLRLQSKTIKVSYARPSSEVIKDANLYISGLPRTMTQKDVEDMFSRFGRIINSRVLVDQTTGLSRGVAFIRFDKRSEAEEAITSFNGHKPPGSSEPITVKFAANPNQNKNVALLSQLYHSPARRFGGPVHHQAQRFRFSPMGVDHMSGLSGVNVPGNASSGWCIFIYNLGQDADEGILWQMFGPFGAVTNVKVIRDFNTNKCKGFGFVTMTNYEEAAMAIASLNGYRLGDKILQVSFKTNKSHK

Row | binding | Substance
1 | binds | G3BP1 (from UniProt Q13283 1-466)
2 | no binding | Grp94 (from UniProt P14625 22-803)
3 | binds | HuR (from UniProt Q15717 1-326)

From publication PMC7226807
